Test results reported in the supplement of paper PMC10849652.
The list shows a part of the results. Residues, ends and D or L forms follow the SMILES beside them. *: point of attachment. Cbz = O=C(OCc1ccccc1)*

The chains behind the UniProt entries cited, without tags or fusion partners. Where a name states a change or a piece, a line headed by the entry shows the natural chain unless it says otherwise.
UniProt P42167: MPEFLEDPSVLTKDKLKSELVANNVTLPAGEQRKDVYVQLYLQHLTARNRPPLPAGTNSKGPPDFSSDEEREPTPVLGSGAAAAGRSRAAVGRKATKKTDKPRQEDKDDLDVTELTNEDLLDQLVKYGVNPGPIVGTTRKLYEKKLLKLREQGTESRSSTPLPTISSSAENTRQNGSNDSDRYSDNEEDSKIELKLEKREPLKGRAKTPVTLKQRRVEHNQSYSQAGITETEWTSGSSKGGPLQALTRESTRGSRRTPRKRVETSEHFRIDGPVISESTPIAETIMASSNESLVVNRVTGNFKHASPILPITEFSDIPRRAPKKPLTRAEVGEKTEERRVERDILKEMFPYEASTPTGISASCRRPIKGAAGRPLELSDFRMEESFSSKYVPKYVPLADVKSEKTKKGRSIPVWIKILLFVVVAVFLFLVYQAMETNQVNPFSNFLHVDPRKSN
UniProt Q5T3F8: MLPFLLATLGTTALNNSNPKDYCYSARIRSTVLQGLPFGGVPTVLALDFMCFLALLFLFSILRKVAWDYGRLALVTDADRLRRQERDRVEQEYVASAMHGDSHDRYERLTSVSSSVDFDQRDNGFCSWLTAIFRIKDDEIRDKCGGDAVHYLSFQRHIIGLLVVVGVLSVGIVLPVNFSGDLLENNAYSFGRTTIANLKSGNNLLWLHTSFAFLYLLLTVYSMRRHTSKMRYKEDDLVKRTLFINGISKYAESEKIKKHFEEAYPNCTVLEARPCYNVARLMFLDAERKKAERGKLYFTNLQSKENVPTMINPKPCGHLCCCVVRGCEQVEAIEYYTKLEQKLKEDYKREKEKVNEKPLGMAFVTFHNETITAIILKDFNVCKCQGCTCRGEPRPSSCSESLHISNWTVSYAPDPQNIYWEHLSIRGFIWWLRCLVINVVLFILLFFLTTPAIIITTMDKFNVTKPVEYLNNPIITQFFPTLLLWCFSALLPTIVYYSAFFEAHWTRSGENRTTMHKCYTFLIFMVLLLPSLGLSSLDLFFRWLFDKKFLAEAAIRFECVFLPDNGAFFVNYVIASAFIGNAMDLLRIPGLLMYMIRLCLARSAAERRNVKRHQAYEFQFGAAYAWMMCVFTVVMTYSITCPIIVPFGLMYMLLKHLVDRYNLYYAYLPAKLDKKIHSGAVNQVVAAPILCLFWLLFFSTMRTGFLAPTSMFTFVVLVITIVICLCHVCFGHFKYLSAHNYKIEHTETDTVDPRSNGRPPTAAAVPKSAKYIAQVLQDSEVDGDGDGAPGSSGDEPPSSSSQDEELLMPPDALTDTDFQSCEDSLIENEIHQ
UniProt Q9BVC6: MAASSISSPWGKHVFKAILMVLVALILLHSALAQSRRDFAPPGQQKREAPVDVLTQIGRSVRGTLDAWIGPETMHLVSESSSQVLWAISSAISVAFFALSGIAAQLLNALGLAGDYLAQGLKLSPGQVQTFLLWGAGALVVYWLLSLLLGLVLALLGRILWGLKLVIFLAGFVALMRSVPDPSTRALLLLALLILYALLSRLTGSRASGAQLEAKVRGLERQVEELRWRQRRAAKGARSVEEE
UniProt Q9BRN9: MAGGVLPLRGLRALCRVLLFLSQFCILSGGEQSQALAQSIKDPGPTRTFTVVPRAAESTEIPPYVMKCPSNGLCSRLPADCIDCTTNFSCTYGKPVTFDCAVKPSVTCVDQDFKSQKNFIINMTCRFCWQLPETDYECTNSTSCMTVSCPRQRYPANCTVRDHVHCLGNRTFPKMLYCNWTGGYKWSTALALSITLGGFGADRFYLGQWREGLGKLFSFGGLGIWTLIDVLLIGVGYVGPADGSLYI
UniProt Q86WV6: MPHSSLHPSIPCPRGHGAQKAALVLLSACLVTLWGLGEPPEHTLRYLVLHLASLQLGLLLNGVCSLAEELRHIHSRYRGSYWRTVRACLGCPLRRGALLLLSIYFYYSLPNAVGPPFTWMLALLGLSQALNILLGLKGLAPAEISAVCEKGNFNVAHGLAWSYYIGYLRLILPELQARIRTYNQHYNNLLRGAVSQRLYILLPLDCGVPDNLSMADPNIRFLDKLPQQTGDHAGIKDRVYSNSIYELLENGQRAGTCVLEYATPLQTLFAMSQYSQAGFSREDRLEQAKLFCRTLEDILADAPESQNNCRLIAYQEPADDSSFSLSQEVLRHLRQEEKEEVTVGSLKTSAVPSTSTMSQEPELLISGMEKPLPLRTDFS
UniProt Q9NYL9: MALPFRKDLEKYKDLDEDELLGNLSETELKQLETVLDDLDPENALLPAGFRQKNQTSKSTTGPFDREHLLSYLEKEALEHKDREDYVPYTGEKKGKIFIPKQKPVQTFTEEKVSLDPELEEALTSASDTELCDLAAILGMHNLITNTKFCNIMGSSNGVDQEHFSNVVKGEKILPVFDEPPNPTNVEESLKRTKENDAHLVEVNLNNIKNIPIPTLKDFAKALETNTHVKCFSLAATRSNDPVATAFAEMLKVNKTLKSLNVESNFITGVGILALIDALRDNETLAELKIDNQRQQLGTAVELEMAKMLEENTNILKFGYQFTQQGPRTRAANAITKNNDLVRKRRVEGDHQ
UniProt Q8TBQ9: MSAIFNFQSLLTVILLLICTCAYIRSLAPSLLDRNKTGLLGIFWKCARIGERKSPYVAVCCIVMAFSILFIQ
UniProt Q96SK2: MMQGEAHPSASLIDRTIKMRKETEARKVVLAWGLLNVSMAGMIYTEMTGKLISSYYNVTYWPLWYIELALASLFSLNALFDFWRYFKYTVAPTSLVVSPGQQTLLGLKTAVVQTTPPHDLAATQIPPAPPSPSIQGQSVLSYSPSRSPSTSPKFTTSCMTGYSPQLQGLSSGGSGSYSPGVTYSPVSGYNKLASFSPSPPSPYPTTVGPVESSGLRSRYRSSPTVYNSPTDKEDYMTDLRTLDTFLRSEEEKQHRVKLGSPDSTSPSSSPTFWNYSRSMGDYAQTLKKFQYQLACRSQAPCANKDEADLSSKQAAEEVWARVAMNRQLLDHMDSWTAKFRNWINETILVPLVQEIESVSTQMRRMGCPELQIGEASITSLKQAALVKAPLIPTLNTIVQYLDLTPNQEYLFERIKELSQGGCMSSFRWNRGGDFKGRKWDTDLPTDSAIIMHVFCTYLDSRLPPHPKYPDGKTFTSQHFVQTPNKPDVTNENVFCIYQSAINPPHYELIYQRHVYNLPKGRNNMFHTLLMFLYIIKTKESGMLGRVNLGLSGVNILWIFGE
UniProt Q8NBN3: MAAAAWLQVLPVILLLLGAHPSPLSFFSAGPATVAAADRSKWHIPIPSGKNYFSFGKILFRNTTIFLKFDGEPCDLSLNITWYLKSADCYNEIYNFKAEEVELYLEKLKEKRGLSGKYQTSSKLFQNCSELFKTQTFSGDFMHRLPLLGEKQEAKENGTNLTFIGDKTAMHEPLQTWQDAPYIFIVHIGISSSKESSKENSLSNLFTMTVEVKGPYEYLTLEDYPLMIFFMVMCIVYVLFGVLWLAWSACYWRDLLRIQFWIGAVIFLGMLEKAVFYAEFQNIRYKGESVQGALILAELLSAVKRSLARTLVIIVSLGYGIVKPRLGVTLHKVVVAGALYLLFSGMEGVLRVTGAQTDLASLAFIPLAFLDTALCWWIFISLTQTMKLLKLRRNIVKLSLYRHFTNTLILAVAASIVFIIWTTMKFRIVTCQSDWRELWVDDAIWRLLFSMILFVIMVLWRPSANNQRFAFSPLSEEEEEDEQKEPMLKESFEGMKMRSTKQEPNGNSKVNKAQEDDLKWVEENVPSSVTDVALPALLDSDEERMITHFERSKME
UniProt Q5BJH2: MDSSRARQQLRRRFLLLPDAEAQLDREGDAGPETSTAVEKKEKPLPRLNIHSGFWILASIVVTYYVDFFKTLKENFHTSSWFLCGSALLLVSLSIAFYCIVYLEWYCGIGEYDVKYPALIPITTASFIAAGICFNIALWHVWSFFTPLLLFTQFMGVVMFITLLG
UniProt Q9NVH6: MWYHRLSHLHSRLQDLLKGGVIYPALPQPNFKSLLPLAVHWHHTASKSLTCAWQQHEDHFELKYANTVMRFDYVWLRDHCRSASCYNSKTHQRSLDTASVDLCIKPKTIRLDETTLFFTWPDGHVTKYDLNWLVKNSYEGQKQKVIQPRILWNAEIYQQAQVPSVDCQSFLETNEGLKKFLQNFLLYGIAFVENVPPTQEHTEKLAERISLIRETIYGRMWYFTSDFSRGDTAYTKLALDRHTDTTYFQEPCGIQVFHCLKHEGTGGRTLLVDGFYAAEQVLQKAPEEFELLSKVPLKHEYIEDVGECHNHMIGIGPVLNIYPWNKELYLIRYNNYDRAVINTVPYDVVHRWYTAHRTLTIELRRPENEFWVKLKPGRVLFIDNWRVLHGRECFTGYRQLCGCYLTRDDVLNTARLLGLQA
UniProt A5PLL7: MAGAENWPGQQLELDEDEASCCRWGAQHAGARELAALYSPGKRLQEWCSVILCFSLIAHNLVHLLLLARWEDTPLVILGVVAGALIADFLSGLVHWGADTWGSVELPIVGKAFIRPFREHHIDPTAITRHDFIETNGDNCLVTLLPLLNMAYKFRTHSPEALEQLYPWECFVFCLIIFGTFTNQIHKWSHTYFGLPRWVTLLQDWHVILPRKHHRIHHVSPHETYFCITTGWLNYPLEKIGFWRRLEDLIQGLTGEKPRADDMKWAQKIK
UniProt Q96MH6: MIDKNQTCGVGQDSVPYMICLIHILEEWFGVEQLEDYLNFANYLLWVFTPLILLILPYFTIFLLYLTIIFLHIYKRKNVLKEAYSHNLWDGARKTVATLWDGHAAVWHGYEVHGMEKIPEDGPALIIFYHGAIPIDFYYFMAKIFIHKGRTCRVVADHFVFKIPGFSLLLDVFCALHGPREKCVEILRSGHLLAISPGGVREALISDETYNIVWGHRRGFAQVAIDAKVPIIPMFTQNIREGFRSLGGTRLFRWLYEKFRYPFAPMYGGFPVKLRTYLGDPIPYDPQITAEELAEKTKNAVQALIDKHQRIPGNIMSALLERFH
UniProt Q86UB9: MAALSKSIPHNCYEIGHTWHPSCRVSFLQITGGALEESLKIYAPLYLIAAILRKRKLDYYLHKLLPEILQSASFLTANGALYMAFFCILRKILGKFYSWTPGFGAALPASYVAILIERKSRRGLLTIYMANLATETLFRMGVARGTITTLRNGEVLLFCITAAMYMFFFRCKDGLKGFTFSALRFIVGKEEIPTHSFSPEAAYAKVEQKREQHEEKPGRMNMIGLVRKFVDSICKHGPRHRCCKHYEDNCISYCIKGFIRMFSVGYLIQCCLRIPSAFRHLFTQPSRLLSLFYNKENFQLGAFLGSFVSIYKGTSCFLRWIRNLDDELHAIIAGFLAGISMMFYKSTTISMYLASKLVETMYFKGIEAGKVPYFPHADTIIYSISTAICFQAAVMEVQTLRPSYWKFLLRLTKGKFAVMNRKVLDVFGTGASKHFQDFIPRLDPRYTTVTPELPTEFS
UniProt Q9H3N1: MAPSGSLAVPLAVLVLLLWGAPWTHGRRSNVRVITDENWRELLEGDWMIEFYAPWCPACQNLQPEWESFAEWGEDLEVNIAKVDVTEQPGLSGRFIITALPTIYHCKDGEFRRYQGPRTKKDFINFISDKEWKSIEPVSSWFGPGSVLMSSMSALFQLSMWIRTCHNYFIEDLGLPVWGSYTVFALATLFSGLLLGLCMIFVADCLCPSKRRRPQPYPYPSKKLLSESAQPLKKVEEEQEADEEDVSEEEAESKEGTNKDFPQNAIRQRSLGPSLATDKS

Key:
Assay in all cases: log2 fold change, soluble protein after heating vs DMSO (PISA); higher = thermal stabilisation; K562 cells, 10 uM, 30 min; active = over 0.2 and 3.5 SD of the protein, either way, in both replicates (recomputed)
erlotinib = compound: C#Cc1cccc(Nc2ncnc3cc(OCCOC)c(OCCOC)cc23)c1 [erlotinib]
In short: (§1)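 K562 cells at 2×10^6 cells/mL were given 10 μM compound for 30 min. Aliquots then went through 3 min of heating across 48°C-58°C, were pooled, and were extracted in PBS with 0.5% NP-40 at 4°C, and the supernatant after 21,000xg for 90 min was quantified by TMTpro 16plex LC-MS/MS with channel sums equalised. Thermal stability relative to control samples, from duplicates, is given as log2 fold change.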

[1] = compound: C/C(=N\NC(=O)C1=CC(=CC=C1)S(=O)(=O)N2CCOCC2)/C3=C(C=CC(=C3)Cl)O
In short: as §1

[2] = compound: C1=CC(=C(C=C1Cl)C2=NC3=NC=CN=C3C(=N2)NC4=CC=NC=C4)F
In short: as §1

[3] = compound: C1=CC(=CC=C1C2=NC3=C(N2)C=C(C=C3)C(=O)N)OC4=CC=C(C=C4)Cl
In short: as §1

[4] = compound: C1=CC2=C(C=CC(=C2)/C=C\3/C(=O)NC(=NCC4=CC=CS4)S3)N=C1
In short: as §1

[5] = compound: C1=CC2=NC=CN=C2C=C1/C=C/3\C(=O)NC(=O)S3
In short: as §1

[6] = compound: C1=CC=C(C=C1)C2=NC(=C(N2)C3=CC=NC=C3)C4=CC(=C(C=C4)Cl)O
In short: as §1

[7] = compound: C1=CC=C2C(=C1)C3=NNC4=CC=CC(=C43)C2=O
In short: as §1

[8] = compound: C1CCN(C1)C(=O)NC2=CC=CC(=C2)NC3=NC=C(C(=N3)NCCC4=CN=CN4)Br
In short: as §1

[9] = compound: C1CN(CCC1(CC2=CC=C(C=C2)Cl)N)C3=NC=NC4=C3C=CN4
In short: as §1

IRAK-1-4 Inhibitor I = compound: C1COCCN1CCN2C3=CC=CC=C3N=C2NC(=O)C4=CC(=CC=C4)[N+](=O)[O-] [IRAK-1-4 Inhibitor I]
In short: as §1

ibrutinib = compound: C=CC(=O)N1CCC[C@@H](n2nc(-c3ccc(Oc4ccccc4)cc3)c3c(N)ncnc32)C1 [ibrutinib]
In short: as §1

[10] = compound: CC(=O)c1cnc2ccc(-c3cc(Cl)c(O)c(Cl)c3)nc2c1N[C@H]1CC[C@H](CN(C)C)CC1
In short: as §1

ralimetinib = compound: CC(C)(C)Cn1c(N)nc2ccc(-c3[nH]c(C(C)(C)C)nc3-c3ccc(F)cc3)nc21 [ralimetinib]
In short: as §1

[11] = compound: CC(C)(O)CC(=O)NCCn1ccc2ncnc(Nc3ccc(Oc4cccc(C(F)(F)F)c4)c(Cl)c3)c21
In short: as §1

[12] = compound: CC(C)C1=C2N=C(C=C(N2N=C1)NCC3=CC=CC=C3)NCCCCCCN
In short: as §1

[13] = compound: CC(C)C[C@@H](C=O)NC(=O)[C@H](CC(C)C)NC(=O)[C@H](CC(C)C)NC(=O)OCc1ccccc1
In short: as §1

pinometostat = compound: CC(C)N(C[C@H]1O[C@@H](n2cnc3c(N)ncnc32)[C@H](O)[C@@H]1O)[C@H]1C[C@@H](CCc2nc3cc(C(C)(C)C)ccc3[nH]2)C1 [pinometostat]
In short: as §1

[14] = compound: CC1=C(C(CC(=O)N1)C2=CC=C(C=C2)C(F)(F)F)C(=O)NC3=C(C=C4C(=C3)C=NN4)F
In short: as §1

[15] = compound: CC1=C(C2=C(C=C1)C(=O)C3=CC=CC=C3N2CCCN)C
In short: as §1

Measured: log2 fold change

TMPO isoform 2 (UniProt P42167)
inactive: erlotinib -0.009 | [1] -0.065 | [2] 0.023 | [3] 0.017 | [4] 0.078 | [5] 0.04 | [6] -0.11 | [7] -0.111 | [8] 0.061 | [9] 0.043 | IRAK-1-4 Inhibitor I 0.131 | ibrutinib -0.032 | [10] -0.101 | ralimetinib -0.129 | [11] -0.146 | [12] -0.097 | [13] 0.096 | pinometostat 0.124 | [14] -0.004 | [15] -0.039

TMEM63B (UniProt Q5T3F8)
inactive: erlotinib -0.037 | [1] 0.063 | [2] -0.024 | [3] -0.009 | [4] -0.066 | [5] 0.012 | [6] -0.076 | [7] -0.033 | [8] 0.011 | [9] 0.065 | IRAK-1-4 Inhibitor I -0.01 | ibrutinib -0.055 | [10] -0.002 | ralimetinib -0.034 | [11] 0.011 | [12] -0.157 | [13] -0.01 | pinometostat 0.041 | [15] 0.054

TMEM109 (UniProt Q9BVC6)
inactive: erlotinib 0.026 | [1] -0.044 | [2] 0.033 | [3] 0.011 | [4] 0.027 | [5] 0.038 | [6] -0.042 | [7] 0.011 | [8] 0 | [9] 0.006 | IRAK-1-4 Inhibitor I 0.003 | ibrutinib 0.024 | [10] 0.015 | ralimetinib -0.029 | [11] 0.041 | [12] 0.038 | [13] -0.017 | pinometostat -0.073 | [14] -0.001 | [15] 0.06

TM2D3 (UniProt Q9BRN9)
inactive: erlotinib -0.013 | [1] 0.04 | [2] 0.053 | [3] -0.049 | [4] -0.002 | [5] -0.005 | [6] -0.042 | [7] 0 | [8] -0.105 | [9] -0.071 | IRAK-1-4 Inhibitor I -0.139 | ibrutinib 0.075 | [10] -0.097 | ralimetinib -0.127 | [11] -0.03 | [12] -0.062 | [13] 0.119 | pinometostat 0.008 | [14] 0.023 | [15] -0.12

TMEM173 (UniProt Q86WV6)
inactive: erlotinib 0.028 | [1] 0.018 | [2] -0.012 | [3] -0.078 | [4] 0.068 | [5] 0.019 | [6] -0.044 | [7] -0.032 | [8] 0.02 | [9] -0.05 | IRAK-1-4 Inhibitor I 0.018 | ibrutinib -0.105 | [10] 0.009 | ralimetinib 0.067 | [11] -0.047 | [12] -0.006 | [13] 0.005 | pinometostat 0.012 | [15] 0.088

TMOD3 (UniProt Q9NYL9)
inactive: erlotinib 0.02 | [1] 0.064 | [2] 0.024 | [3] -0.007 | [4] -0.047 | [5] 0.033 | [6] 0.009 | [7] 0.02 | [8] -0.02 | [9] -0.012 | IRAK-1-4 Inhibitor I -0.049 | ibrutinib -0.005 | [10] 0.048 | ralimetinib 0.088 | [11] -0.036 | [12] -0.102 | [13] 0.065 | pinometostat 0.015 | [14] -0.018 | [15] -0.067

TMEM167A (UniProt Q8TBQ9)
inactive: erlotinib -0.054 | [1] -0.001 | [2] 0.037 | [3] -0.076 | [4] 0.051 | [5] -0.094 | [6] 0.051 | [7] 0.021 | [8] 0.002 | [9] 0.058 | IRAK-1-4 Inhibitor I 0.048 | ibrutinib 0.064 | [10] -0.005 | ralimetinib -0.038 | [11] -0.027 | [12] 0.08 | [13] 0.034 | pinometostat -0.01 | [14] -0.016 | [15] -0.067

TMEM209 (UniProt Q96SK2)
inactive: erlotinib 0.016 | [1] 0.091 | [2] -0.031 | [3] 0.045 | [4] -0.013 | [5] -0.005 | [6] 0.017 | [7] -0.214 | [8] -0.07 | [9] 0.051 | IRAK-1-4 Inhibitor I 0.003 | ibrutinib 0 | [10] -0.098 | ralimetinib 0.018 | [11] -0.107 | [12] -0.151 | [13] 0.076 | pinometostat -0.006 | [14] -0.009 | [15] 0

TMEM87A (UniProt Q8NBN3)
inactive: erlotinib 0.01 | [1] -0.012 | [2] 0.079 | [3] 0.036 | [4] 0.034 | [5] 0.049 | [6] -0.022 | [7] 0.011 | [8] 0.016 | [9] 0.099 | IRAK-1-4 Inhibitor I 0.027 | ibrutinib 0.007 | [10] -0.009 | ralimetinib -0.061 | [11] -0.016 | [12] -0.043 | [13] -0.013 | pinometostat -0.004 | [14] -0.038 | [15] -0.014

TMEM128 (UniProt Q5BJH2)
active: [10] 0.45
inactive: erlotinib -0.048 | [1] 0 | [2] 0.06 | [3] 0.034 | [4] -0.437 | [5] 0.067 | [6] -0.081 | [7] -0.238 | [8] -0.182 | [9] 0.084 | IRAK-1-4 Inhibitor I -0.046 | ibrutinib -0.025 | ralimetinib -0.036 | [11] -0.051 | [12] 0.028 | [13] 0.108 | pinometostat 0.122 | [15] 0

TMLHE isoform 8 (UniProt Q9NVH6)
inactive: erlotinib 0.033 | [1] -0.044 | [2] -0.064 | [3] 0.001 | [4] -0.032 | [5] 0.074 | [6] 0.035 | [7] -0.079 | [8] -0.009 | [9] 0.084 | IRAK-1-4 Inhibitor I 0.02 | ibrutinib -0.005 | [10] -0.047 | ralimetinib -0.028 | [11] 0.002 | [12] 0.02 | [13] 0.004 | pinometostat -0.022 | [14] -0.119 | [15] 0.199

TMEM189 (UniProt A5PLL7)
inactive: erlotinib 0.052 | [1] -0.057 | [2] 0.054 | [3] -0.038 | [4] 0.041 | [5] 0.102 | [6] 0.132 | [7] -0.032 | [8] 0.201 | [9] -0.023 | IRAK-1-4 Inhibitor I 0.063 | ibrutinib 0.073 | [10] 0.095 | ralimetinib 0.034 | [11] -0.278 | [12] 0.018 | [13] -0.047 | pinometostat -0.01 | [14] 0.046 | [15] 0

TMEM68 (UniProt Q96MH6)
inactive: erlotinib 0.025 | [1] 0.035 | [2] 0.06 | [3] -0.02 | [4] 0.002 | [5] 0.041 | [6] -0.004 | [7] -0.015 | [8] -0.012 | [9] 0.071 | IRAK-1-4 Inhibitor I -0.024 | ibrutinib 0.056 | [10] -0.002 | ralimetinib -0.026 | [11] -0.035 | [12] -0.017 | [13] 0.027 | pinometostat -0.04 | [14] 0 | [15] 0.034

TMEM135 (UniProt Q86UB9)
inactive: erlotinib 0.105 | [1] 0.042 | [2] 0.082 | [3] -0.014 | [4] -0.012 | [5] 0.048 | [6] -0.031 | [7] -0.081 | [8] 0.027 | [9] 0.082 | IRAK-1-4 Inhibitor I 0.026 | ibrutinib 0 | [10] -0.029 | ralimetinib -0.033 | [11] -0.048 | [12] -0.035 | [13] 0.043 | pinometostat -0.192 | [14] 0.018 | [15] -0.029

TMX1 (UniProt Q9H3N1)
inactive: erlotinib 0.01 | [1] 0.001 | [2] -0.001 | [3] -0.006 | [4] 0 | [5] 0.009 | [6] -0.05 | [7] -0.009 | [8] -0.004 | [9] 0.024 | IRAK-1-4 Inhibitor I 0.013 | ibrutinib -0.022 | [10] -0.002 | ralimetinib -0.037 | [11] 0.028 | [12] 0.014 | [13] -0.012 | pinometostat -0.006 | [14] -0.009 | [15] 0.012

TMEM263 (UniProt Q8WUH6)
inactive: erlotinib 0.093 | [1] 0.024 | [2] 0.024 | [3] -0.012 | [4] 0.058 | [5] -0.013 | [6] 0.02 | [7] -0.101 | [8] 0.036 | [9] 0.022 | IRAK-1-4 Inhibitor I 0.083 | ibrutinib 0 | [10] 0.026 | ralimetinib -0.092 | [11] -0.303 | [13] 0.029 | pinometostat 0.001 | [15] 0.037
active: [12] -1.03
